The values below come from PMC3628841.

Sequences of proteins named here, by UniProt entry; tags and fusion partners are left off. Residues count along the entry.
UniProt P08138, residues 29-427: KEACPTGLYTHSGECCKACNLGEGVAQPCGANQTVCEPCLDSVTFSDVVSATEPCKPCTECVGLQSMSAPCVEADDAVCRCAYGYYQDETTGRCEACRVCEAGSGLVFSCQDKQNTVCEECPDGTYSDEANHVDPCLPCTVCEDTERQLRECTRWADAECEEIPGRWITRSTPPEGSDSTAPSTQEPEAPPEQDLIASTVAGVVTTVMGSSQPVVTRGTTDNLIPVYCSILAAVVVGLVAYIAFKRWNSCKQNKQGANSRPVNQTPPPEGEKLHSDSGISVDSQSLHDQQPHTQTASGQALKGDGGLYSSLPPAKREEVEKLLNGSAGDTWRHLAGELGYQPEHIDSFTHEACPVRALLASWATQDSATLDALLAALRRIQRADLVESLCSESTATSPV
UniProt P07174, residues 30-425: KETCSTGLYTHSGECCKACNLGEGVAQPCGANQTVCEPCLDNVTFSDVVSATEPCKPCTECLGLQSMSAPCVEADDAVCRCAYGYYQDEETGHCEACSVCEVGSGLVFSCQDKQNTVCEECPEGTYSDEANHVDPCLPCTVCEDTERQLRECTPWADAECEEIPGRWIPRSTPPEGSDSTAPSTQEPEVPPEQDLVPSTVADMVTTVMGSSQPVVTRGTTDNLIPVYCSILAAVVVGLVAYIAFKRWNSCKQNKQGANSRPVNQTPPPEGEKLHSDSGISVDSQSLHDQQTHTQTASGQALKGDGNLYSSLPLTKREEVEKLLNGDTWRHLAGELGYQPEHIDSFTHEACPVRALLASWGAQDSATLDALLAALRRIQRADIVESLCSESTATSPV

No constants are given. Whether binding was seen depends on the method and setting. In cells and extracts the contact can be indirect. Some results given as binding are weak or reduced against the parent protein; the word gives no strength.

Common to all, as to experiment: co-IP; endogenous proteins from adult rat and human brain lysates; Protein G Dynabeads coated with goat anti-AMIGO3, rabbit anti-NgR1 or mouse anti-NGFR (p75); 30 min at room temperature; western blot for AMIGO3, p75 and NgR1; IgG as control antibody
Background: A western blot detects proteins with antibodies after separation by electrophoresis.

Test [1] concerns the target T1, endogenous human NgR1 (human (endogenous in brain)) (UniProt Q9BZR6).
T1 sequence: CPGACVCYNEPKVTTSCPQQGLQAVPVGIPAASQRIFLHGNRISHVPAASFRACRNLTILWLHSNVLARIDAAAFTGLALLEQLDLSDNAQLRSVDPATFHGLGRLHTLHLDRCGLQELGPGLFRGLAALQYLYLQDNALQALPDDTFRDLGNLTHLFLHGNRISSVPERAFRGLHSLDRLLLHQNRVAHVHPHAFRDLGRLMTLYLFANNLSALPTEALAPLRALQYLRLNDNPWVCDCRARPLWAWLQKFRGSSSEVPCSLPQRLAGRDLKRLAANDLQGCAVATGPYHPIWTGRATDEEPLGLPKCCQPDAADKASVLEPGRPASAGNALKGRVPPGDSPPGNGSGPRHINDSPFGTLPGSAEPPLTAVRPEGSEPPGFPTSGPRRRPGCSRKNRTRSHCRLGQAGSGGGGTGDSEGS

The target in test [2] is T2, endogenous human AMIGO3 (human (endogenous in brain)) (UniProt Q86WK7).
T2 sequence: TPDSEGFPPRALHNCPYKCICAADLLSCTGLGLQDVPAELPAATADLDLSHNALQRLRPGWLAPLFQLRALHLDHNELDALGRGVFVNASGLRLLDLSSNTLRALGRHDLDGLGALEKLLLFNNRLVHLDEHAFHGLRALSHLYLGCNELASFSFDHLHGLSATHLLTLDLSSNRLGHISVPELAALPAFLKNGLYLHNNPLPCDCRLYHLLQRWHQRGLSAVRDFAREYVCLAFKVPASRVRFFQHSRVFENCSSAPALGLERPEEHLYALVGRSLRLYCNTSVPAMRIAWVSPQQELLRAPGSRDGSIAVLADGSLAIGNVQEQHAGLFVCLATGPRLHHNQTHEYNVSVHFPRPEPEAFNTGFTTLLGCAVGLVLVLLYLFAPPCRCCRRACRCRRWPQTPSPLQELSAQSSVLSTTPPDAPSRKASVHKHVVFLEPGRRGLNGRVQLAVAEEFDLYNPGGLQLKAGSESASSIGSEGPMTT

Test [3] addresses T3, endogenous rat NgR1 (rat (endogenous in brain)) (UniProt Q99M75).
T3 sequence: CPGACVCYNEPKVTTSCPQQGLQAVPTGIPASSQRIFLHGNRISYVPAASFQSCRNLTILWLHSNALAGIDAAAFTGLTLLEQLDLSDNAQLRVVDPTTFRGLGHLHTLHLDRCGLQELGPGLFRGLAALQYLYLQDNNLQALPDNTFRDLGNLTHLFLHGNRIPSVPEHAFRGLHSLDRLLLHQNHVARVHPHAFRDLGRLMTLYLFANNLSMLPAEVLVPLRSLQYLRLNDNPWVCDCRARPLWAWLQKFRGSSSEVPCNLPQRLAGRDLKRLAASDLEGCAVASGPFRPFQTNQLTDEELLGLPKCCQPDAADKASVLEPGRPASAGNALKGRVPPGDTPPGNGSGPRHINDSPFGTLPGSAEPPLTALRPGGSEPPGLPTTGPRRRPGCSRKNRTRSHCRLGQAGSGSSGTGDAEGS

Test [4] has as its target T4, endogenous rat AMIGO3 (rat (endogenous in brain)) (UniProt Q80ZD5).
T4 sequence: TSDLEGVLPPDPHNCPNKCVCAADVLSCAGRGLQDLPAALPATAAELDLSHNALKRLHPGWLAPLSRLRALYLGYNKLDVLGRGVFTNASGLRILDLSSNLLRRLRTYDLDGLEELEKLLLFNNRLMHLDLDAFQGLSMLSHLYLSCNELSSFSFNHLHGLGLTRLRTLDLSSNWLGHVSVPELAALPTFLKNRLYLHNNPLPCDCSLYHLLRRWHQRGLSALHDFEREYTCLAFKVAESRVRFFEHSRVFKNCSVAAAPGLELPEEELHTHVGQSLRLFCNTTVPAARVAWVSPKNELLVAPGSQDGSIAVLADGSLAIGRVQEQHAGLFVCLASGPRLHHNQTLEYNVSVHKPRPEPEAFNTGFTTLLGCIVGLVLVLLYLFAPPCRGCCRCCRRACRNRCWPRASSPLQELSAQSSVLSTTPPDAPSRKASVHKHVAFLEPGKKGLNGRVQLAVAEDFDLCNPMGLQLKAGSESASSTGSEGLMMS

Turning to “endogenous human p75 (from UniProt P08138 29-427) (receptor)”, the binding result in test [1] and in test [2] was “binds” each time.

In the case of “endogenous rat p75 (from UniProt P07174 30-425) (receptor)”, the binding entry in test [3] and in test [4] was “binds” throughout.

B1: endogenous human NgR1 (receptor, UniProt Q9BZR6 27-447)
chain: T1 sequence
As to B1, in test [2], the binding entry is “binds”.

B2: endogenous rat NgR1 (receptor, UniProt Q99M75 27-447)
chain: T3 sequence
With B2, the binding entry in test [4] is given as “binds”.
